Source: article doi:10.1101/2020.07.20.211441
Read-outs that look alike come from different tables or passages of the source. Results are given in words; binding and its absence hold for the method and conditions named. In cells and extracts the contact can be indirect. Some binding calls cover weakened binding; strength is not graded here. Where a sequence is shown, tags or fusion partners need not be part of it.

Sequences of proteins named here, by UniProt entry; tags and fusion partners are left off.
UniProt Q99KP6: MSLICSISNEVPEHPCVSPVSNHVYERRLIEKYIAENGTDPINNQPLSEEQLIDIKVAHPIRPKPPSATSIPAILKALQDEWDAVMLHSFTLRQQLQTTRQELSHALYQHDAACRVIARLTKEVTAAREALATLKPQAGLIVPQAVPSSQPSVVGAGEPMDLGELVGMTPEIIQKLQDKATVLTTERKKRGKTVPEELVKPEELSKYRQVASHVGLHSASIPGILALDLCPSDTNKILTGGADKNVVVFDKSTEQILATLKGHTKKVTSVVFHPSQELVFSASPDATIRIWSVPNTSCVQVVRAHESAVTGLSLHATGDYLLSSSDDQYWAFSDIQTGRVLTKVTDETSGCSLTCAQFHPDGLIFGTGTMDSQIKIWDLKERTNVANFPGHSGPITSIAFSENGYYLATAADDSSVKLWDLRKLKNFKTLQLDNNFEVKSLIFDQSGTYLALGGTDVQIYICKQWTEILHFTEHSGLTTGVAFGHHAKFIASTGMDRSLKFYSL
UniProt Q64267: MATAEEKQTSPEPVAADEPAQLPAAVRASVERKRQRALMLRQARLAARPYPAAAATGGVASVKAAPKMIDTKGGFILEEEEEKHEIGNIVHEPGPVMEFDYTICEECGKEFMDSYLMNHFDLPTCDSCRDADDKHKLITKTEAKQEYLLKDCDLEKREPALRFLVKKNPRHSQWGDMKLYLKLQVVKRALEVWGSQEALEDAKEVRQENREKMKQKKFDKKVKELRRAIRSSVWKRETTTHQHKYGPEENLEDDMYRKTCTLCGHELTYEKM

Tests used:
Test in all cases: pull-down
[1] = molecular target: T1, XPA-binding protein (XAB)-2, biotin-tagged knock-in (mouse) (UniProt Q9DCD2)
T1 sequence (chain, biotin on the Avitag (by the BirA ligase in vivo)): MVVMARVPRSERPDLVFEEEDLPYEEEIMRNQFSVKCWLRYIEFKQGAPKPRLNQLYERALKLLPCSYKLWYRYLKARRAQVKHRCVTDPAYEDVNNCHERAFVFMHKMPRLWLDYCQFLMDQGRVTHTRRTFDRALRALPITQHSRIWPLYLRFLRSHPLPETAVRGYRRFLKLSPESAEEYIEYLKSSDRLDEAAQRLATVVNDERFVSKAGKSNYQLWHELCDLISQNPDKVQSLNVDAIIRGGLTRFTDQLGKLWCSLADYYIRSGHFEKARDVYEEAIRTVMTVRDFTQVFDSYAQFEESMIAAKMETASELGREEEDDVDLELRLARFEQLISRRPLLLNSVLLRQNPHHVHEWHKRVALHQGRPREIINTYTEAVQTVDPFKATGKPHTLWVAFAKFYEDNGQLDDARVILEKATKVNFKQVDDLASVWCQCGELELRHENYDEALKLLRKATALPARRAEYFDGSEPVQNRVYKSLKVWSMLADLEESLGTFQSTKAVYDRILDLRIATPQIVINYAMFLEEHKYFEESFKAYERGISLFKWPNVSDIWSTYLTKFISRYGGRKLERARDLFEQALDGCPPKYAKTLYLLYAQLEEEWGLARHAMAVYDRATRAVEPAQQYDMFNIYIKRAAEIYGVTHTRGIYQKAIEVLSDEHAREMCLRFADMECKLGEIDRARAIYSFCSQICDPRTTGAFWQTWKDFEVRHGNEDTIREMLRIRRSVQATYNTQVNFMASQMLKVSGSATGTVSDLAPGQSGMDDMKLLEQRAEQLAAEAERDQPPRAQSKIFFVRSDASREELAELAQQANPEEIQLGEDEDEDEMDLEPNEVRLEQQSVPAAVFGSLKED

[2] = molecular target: T1, XPA-binding protein (XAB)-2, biotin-tagged knock-in (mouse); remark: listed apart in the source
[3] = molecular target: T1, XPA-binding protein (XAB)-2, biotin-tagged knock-in (mouse); remark: listed apart in the source
[4] = molecular target: T1, XPA-binding protein (XAB)-2, biotin-tagged knock-in (mouse); remark: listed apart in the source

“pre-mRNA-processing factor 19 (from UniProt Q99KP6 1-504)” was tested, and the binding [1] was “binds”, the binding [2] was “binds” and the binding [3] was “binds”.

With “xeroderma pigmentosum, complementation group A protein (from UniProt Q64267 1-272)” the binding [1] was “binds”.

B1: Aquarius (protein, UniProt Q8CFQ3 1-1481)
chain: MAAPAQPKKIVAPTVSQINAEFVTQLACKYWAPHIKKKSPFDIKVIEEIYEKEIVKSRFAIRKIMLLEFSQYLENYLWMNYSPEVSSKAYLMSICCMVNEKFRENVPAWETFKKKPDHFPFFFKCILKAALAETDGEFSLHEQTLLLLFLDHCFNSLEVDLIRSQVQQLISLPMWMGLQPARLELELKKTPKLRKFWNLIKKNDEKMDPEAREQAYQERRFLSRLIQKFISVLKSIPLSEPVTMDKVHYCERFIELMIDLEALLPTRRWFNTILDDSHLLVHCYLSSLVHREEDGHLFSQLLDMLKFYTGFEINDQTGNALTENEMTTIHYDRITSLQRAAFAHFPELYDFALSNVAEVDARDSLVKFFGPLSSNTLHQVASYLCLLPTLPKNEDTTFDKEFLLELLVSRHERRISQIQQLNQMPLYPTEKIIWDENIVPTEYYSGEGCLALPKLNLQFLTLHDYLLRNFNLFRLESTYEIRQDIEDSVSRMKPWQSEYGGVVFGGWARMAQPIVAFTVVEVAKPNIGENWPTRVRADVTINLNVRDHIKDEWEGLRKHDVCFLITVRPTKPYGTKFDRRRPFIEQVGLVYVRGCEIQGMLDDKGRVIEDGPEPRPNLRGESRTFRVFLDPNQYQQDMTNTIQNGAEDVYDTFNVIMRRKPKENNFKAVLETIRNLMNTDCVVPDWLHDIILGYGDPSSAHYSKMPNQIATLDFNDTFLSIEHLKASFPGHNVKVTVSDPALQIPPFRITFPVRSGKGKKRKDADGEEDDTEEAKTLIVEPHVIPNRGPYPYNQPKRNTIQFTHTQIEAIRAGMQPGLTMVVGPPGTGKTDVAVQIISNIYHNFPEQRTLIVTHSNQALNQLFEKIMALDIDERHLLRLGHGEEELETEKDFSRYGRVNYVLARRIELLEEVKRLQKSLGVPGDASYTCETAGYFFLYQVMSRWEEYMSRVKNSGTACPDAAPDAAQVATFFPFHEYFANAPQPIFKGRSYEEDMEIAEGCFRHIKKIFTQLEEFRASELLRSGLDRSKYLLVKEAKIIAMTCTHAALKRHDLVKLGFKYDNILMEEAAQILEIETFIPLLLQNPQDGFSRLKRWIMIGDHHQLPPVIKNMAFQKYSNMEQSLFTRFVRVGVPTVDLDAQGRARASLCNLYNWRYKNLGNLPHVQLLPEFSTANAGLLYDFQLINVEDFQGVGESEPNPYFYQNLGEAEYVVALFMYMCLLGYPADKISILTTYNGQKHLIRDIINRRCGNNPLIGRPNKVTTVDRFQGQQNDYILLSLVRTRAVGHLRDVRRLVVAMSRARLGLYIFARVSLFQNCFELTPAFSQLTARPLHLHIIPTEPFPTSRKNGERPPHEVQVIKNMPQMANFVYNMYMHLIQTTHHYHQTFLQLPPAMVEEGEEGQSQETEMEAEEETVSAQGNLTPSPADASLSQETPAAQPDCSSQTEDTSAPCDIATAAEPVSAAAEAATPQDAESVPTETE
For B1, the binding [4] was “binds”.

B2: BCAS2 (protein, UniProt Q9D287 1-225)
chain: MAGTGLVAGEVVVDALPYFDQGYEAPGVREAAAALVEEETRRYRPTKNYLSYLTAPDYSAFETDIMRNEFERLAARQPIELLSMKRYELPAPSSGQKNDITAWQECVNNSMAQLEHQAVRIENLELMSQHGCNAWKVYNENLVHMIEHAQKELQKLRKHIQDLNWQRKNMQLTAGSKLREMESNWVSLVSKNYEIERTIVQLENEIYQIKQQHGEANKENIRQDF
With B2 the binding [4] was “binds” and the binding [3] was “binds”.

B3: SNRP40 (protein, UniProt Q6PE01 1-358)
chain: MIEQQKRKGPELPLVPVKRPRHELLLGAAGAGPGAGPQQATPGALLQAGPPRCSSLQAPIMLLSGHEGEVYCCKFHPNGSTLASAGFDRLILLWNVYGDCDNYATLKGHSGAVMELHYNTDGSMLFSASTDKTVAVWDSETGERVKRLKGHTSFVNSCYPARRGPQLVCTGSDDGTVKLWDIRKKAAVQTFQNTYQVLAVTFNDTSDQIISGGIDNDIKVWDLRQNKLTYTMRGHADSVTGLSLSSEGSYLLSNAMDNTVRVWDVRPFAPKERCVKIFQGNVHNFEKNLLRCSWSPDGSKIAAGSADRFVYVWDTTSRRVLYKLPGHAGSINEVAFHPDEPIILSASSDKRLYMGEIQ
B3 was tested, and the binding [3] was “binds”.

B4: ERCC1-XPF endonuclease (complex, UniProt Q9QZD4 1-917; P07903 1-298)
chain 1: MEPGLSGERRSMAPLLEYERQQVLELLDSDGLVVCARGLGTDRLLYHFLRLHCHPACLVLVLNTQPAEEEYFINQLKIEGVEHLPRRVTNEIASNSRYEVYTQGGIIFATSRILVVDFLTGRIPSDLITGILVYRAHRIIESCQEAFILRLFRQKNKRGFIKAFTDNAVAFDTGFCHVERVMRNLFVRKLYLWPRFHVAVNSFLEQHKPEVVEIHVSMTPAMLAIQTAILDILNACLKELKCHNPSLEVEDLSLENALGKPFDKTIRHYLDPLWHQLGAKTKSLVQDLKILRTLLQYLSQYDCVTFLNLLESLRATEKVFGQNSGWLFLDASTSMFVNARARVYRVPDVKLNKKAKTSEKTSSPEVQETKKELVLESNPKWEALTDVLKEIEAENKESEALGGPGRVLICASDDRTCCQLRDYLSAGAETFLLRLYRKTFEKDGKAEEVWVNVRKGDGPKRTTKSDKRPKAAPNKERASAKRGAPLKRKKQELTLTQVLGSAEEPPEDKALEEDLCRQTSSSPEGCGVEIKRESFDLNVSSDAAYGILKEPLTIIHPLLGCSDPYALTRVLHEVEPRYVVLYDAELTFVRQLEIYRASRPGKPLRVYFLIYGGSTEEQRYLTALRKEKEAFEKLIREKASMVVPEEREGRDETNLDLARGSAALDAPTDTRKAGGQEQNGTQSSIVVDMREFRSELPSLIHRRGIDIEPVTLEVGDYILTPELCVERKSVSDLIGSLHSGRLYSQCLAMSRYYRRPVLLIEFDPSKPFSLAPRGAFFQEMSSSDVSSKLTLLTLHFPRLRLLWCPSPHATAELFEELKQNKPQPDAATAMAITADSETLPESDRYNPGPQDFVLKMPGVNAKNCRSLMNQVKNIAELATLSLERLTTILGHSGNAKQLHDFLHTAYADLVSKGRVRK
chain 2: MDPGKDEESRPQPSGPPTRRKFVIPLEEEEVPCAGVKPLFRSSRNPTIPATSAHVAPQTYAEYAITQPPGGAGATVPTGSEPAAGENPSQTLKTGAKSNSIIVSPRQRGNPVLKFVRNVPWEFGEVIPDYVLGQSTCALFLSLRYHNLHPDYIHERLQSLGKNFALRVLLVQVDVKDPQQALKELAKMCILADCTLVLAWSAEEAGRYLETYKAYEQKPADLLMEKLEQNFLSRATECLTTVKSVNKTDSQTLLATFGSLEQLFTASREDLALCPGLGPQKARRLFEVLHEPFLKVPR
B4 was tested, and the binding [4] was “binds”.

B5: XPG endonuclease (protein, UniProt P35689 1-1170)
chain: MGVQGLWKLLECSGHRVSPEALEGKVLAVDISIWLNQALKGVRDSHGNVIENAHLLTLFHRLCKLLFFRIRPIFVFDGDAPLLKKQTLAKRRQRKDSASIDSRKTTEKLLKTFLKRQALKTAFRSSRHEAPPSLTQVQRQDDIYVLPPLPEEEKHSSEEEDEKQWQARMDQKQALQEEFFHNPQAIDIESEDFSSLPPEVKHEILTDMKEFTKRRRTLFEAMPEESNDFSQYQLKGLLKKNYLNQHIENVQKEMNQQHSGQIQRQYQDEGGFLKEVESRRVVSEDTSHYILIKGIQGKKVMDVDSESLPSSSNVHSVSSNLKSSPHEKVKPEREPEAAPPSPRTLLAIQAAMLGSSSEDEPESREGRQSKERNSGATADAGSISPRTCAAIQKALDDDNDEKVSGSSDDLAEKMLLGSGLEQEEHADETAERGGGVPFDTAPLTPSVTEVKECVTSGSSANGQTDSAHSFTTASHRCDTPKETVSLARAVKEASQISSECEVEGRPAALSPAFIGTPSSHVSGVLSEREPTLAPPTTRTHSDQGIDIHPEDPELQNGLYPLETKCNSSRLSSDDETEGGQNPAPKACSTVHVPAEAMSNLENALPSNAEERGDFQETIQLREVPEAAARELISAPKPMGPMEMESEESESDGSFIEVQSVVSNSELQTESSEASTHLSEKDAEEPRETLEEGTSRDTECLLQDSSDIEAMEGHREADIDAEDMPNEWQDINLEELDALESNLLAEQNSLKAQKQQQDRIAASVTGQMFLESQELLRLFGVPYIQAPMEAEAQCAMLDLTDQTSGTITDDSDIWLFGARHVYKNFFNKNKFVEYYQYVDFYSQLGLDRNKLINLAYLLGSDYTEGIPTVGCVTAMEILNEFPGRGLDPLLKFSEWWHEAQNNKKVAENPYDTKVKKKLRKLQLTPGFPNPAVADAYLRPVVDDSRGSFLWGKPDVDKISTFCQRYFGWNRMKTDESLYPVLKHLNAHQTQLRIDSFFRLAQQEKQDAKLIKSHRLNRAVTCILRKEREEKAPELTKVTEALDDAKGKTQKRELPYKKETSVPKRRRPSGNGGFLGDPYCSESPQESSCEDGEGSSVMSARQRSAAESSKISCSDVPDLVRDPPHGRQGCVSTSSSSEDDEDKAKTVLVTARPVFGKKKLKLKSMKRRKKKT
B5 was tested, and the binding [4] was “binds”.
